# Results published in PubChem BioAssay AID540256 (National Center for Advancing Translational Sciences (NCATS), 2011).
# About 3,700 (1.2%) of roughly 300,000 compounds were called active. Inconclusive results, whose numbers are uncertain, are shown with a selection of clear calls. The call rests on the fitted dose curve; tested in HEK293 cells. Potencies beside an inconclusive call are fits to weak or partial responses and may not hold up.
# Test: qHTS for Inhibitors of binding or entry into cells for Lassa Virus; further: nearly all actives have a fitted effect of over 50% in size
# Conditions: Lassa virus pseudotype entry inhibition, cell reporter; activity change, negative = inhibition: at 37.9 µM (top of the series) unless noted
# On the % scale 0 is the no-effect control and ±100 the full control effect; potency means the concentration at half of the fitted maximal effect.
Structure (SMILES),Potency,"activity change, negative = inhibition"
O=C1C(Cl)=C(NCCc2ccccc2)C(=O)c2ccccc21,"inconclusive: 17.8 µM [inhibitor, single point]",–
CCOc1ccc(CCNC(=O)Cn2c(=O)c3cccn3c3ccc(F)cc32)cc1OCC,–,inactive: 7.44% [at 46.1 µM]
CC(C)CN(C(=O)COC(=O)c1ccccn1)c1c(N)n(Cc2ccccc2)c(=O)[nH]c1=O,–,inconclusive: 7.06% [activator]
Cc1ccc(N(C(=O)c2nsc(Cl)c2Cl)C(C(=O)NC2CCCC2)c2ccc(O)cc2)cc1C (stereo unspecified),active: 1.58 µM,–
CCCCOC(=O)c1ccc(NC(=O)C(=O)NCC2CCCO2)cc1 (stereo unspecified),"inconclusive: 16.4 µM [activator, partial curve, poor fit]",–
COc1ccc2nc(NC(=O)CS(=O)(=O)c3ccc(C)cc3)sc2c1,"inconclusive: 2.51 µM [inhibitor, full curve, poor fit]",–
CCN1CCN(C(=O)c2cc(COc3ccc(C(C)=O)cc3OC)on2)CC1,"inconclusive: 3.55 µM [inhibitor, single point]",–
Cc1nc2nc(NCc3cccc(Cl)c3)[nH]n2c(=O)c1Cc1ccccc1,–,inactive: 17.6% [at 46.1 µM]
COc1cc(/C=N/Nc2ccccc2)ccc1OC(=O)c1cccs1,–,inactive: -13.6%
COc1ccc(NC(=O)CN2CCC(C(N)=O)CC2)cc1,"inconclusive: 1.83 µM [inhibitor, full curve]",–
O=C(O)c1c(-c2ccccc2)oc2ccc(OCc3ccc(Cl)c(Cl)c3)cc12,"inconclusive: 22.4 µM [inhibitor, single point]",–
COc1cc(Cl)c(C)cc1Nc1ncccn1,"inconclusive: 35.5 µM [inhibitor, single point]",–
CC1CCC(Nc2ncnc3onc(-c4ccc(F)cc4)c23)CC1 (stereo unspecified),–,inactive: 2.81% [at 46.1 µM]
Cc1ccc(N(C)S(=O)(=O)c2cc(-c3cnc(C4CC4)o3)ccc2C)cc1,"inconclusive: 1.58 µM [inhibitor, partial curve, poor fit]",–
Cc1cccc(Cn2nc(C)c(NC(=O)c3ccc(F)cc3)c2C)c1,"inconclusive: 3.55 µM [inhibitor, partial curve, poor fit]",–
NC(=S)Nc1cnc2ccccc2c1,–,inactive: 27.3%
Cc1ccccc1-n1nnnc1SC(C)C(=O)NC1CCCc2ccccc21 (stereo unspecified),"inconclusive: 7.94 µM [inhibitor, partial curve, poor fit]",–
O=CNc1c(Br)cc2c(c1Br)Cc1cc(Br)ccc1-2,–,inactive: 5.18%
O=C(CCNS(=O)(=O)c1cccs1)N1CCN(c2cccc(C(F)(F)F)c2)CC1,"inconclusive: 35.5 µM [inhibitor, single point]",–
COc1ccc(-n2nc([N+](=O)[O-])c(=NCCc3ccc(Cl)cc3)n2O)cc1,–,inactive: 3.14%
COC(=O)C1=C(C)N(c2ccc(F)c(Cl)c2)C(=O)C1,"inconclusive: 25.9 µM [inhibitor, partial curve, poor fit]",–
CN(C)c1nc(C=C(C#N)C#N)c(Cl)n1-c1ccc(F)cc1,"inconclusive: 35.5 µM [inhibitor, single point]",–
Cc1ccc(S(=O)(=O)N(Cc2ccccc2Cl)C(=O)N2CCN(C)CC2)cc1,"inconclusive: 1.26 µM [inhibitor, partial curve, poor fit]",–
CN(CCC1CCCCO1)C(=O)c1cc(COc2ccc(F)cc2F)on1 (stereo unspecified),"inconclusive: 2.82 µM [inhibitor, partial curve, poor fit]",–

# 3 of the compounds above, as tab-separated lines.
Structure (SMILES)	Potency	activity change, negative = inhibition
CC(C)CN(C(=O)COC(=O)c1ccccn1)c1c(N)n(Cc2ccccc2)c(=O)[nH]c1=O	–	inconclusive: 7.06% [activator]
Cc1ccc(N(C(=O)c2nsc(Cl)c2Cl)C(C(=O)NC2CCCC2)c2ccc(O)cc2)cc1C (stereo unspecified)	active: 1.58 µM	–
CCCCOC(=O)c1ccc(NC(=O)C(=O)NCC2CCCO2)cc1 (stereo unspecified)	inconclusive: 16.4 µM [activator, partial curve, poor fit]	–

# (list continues)

Structure (SMILES),Potency,"activity change, negative = inhibition"
CCn1c(SCC(=O)Nc2nc(C)cs2)nnc1-c1ccco1,"inconclusive: 0.58 µM [activator, full curve, poor fit]",–
CCOC(=O)c1cc(-c2ccccc2)n(CC(=O)Nc2ccc(OCC)cc2)c1C,"inconclusive: 35.5 µM [inhibitor, single point]",–
COc1ccc(Cl)cc1C(=O)OCC(=O)NC(=O)c1cccn1C,–,inactive: -2.19%
Cn1cc(CCC(=O)NCc2ccc(Cl)cc2)c2ccccc21,"inconclusive: 3.98 µM [activator, full curve]",–
CC(C)(Oc1ccc(Cl)cc1)C(=O)NC1CCCCC1,–,inactive: 0.632% [at 46.1 µM]
Cc1ccc(CSCCNC(=O)c2ccc(C)cc2)cc1,"inconclusive: 11.2 µM [inhibitor, partial curve, poor fit]",–
Cc1ccc(S(=O)(=O)N2CCOCC2)cc1C(=O)N1CCN(c2ccc(C(F)(F)F)cn2)CC1,"inconclusive: 7.08 µM [inhibitor, partial curve, poor fit]",–
COc1ccc2[nH]c(=O)c(CN(Cc3nnnn3CCc3ccccc3)CC3CCCO3)cc2c1 (stereo unspecified),"inconclusive: 12.6 µM [inhibitor, single point]",–
Nc1nnnn1/N=C/c1ccccc1,"inconclusive: 5.01 µM [inhibitor, partial curve, poor fit]",–
CCOc1ccc(OCc2cccc(C(=O)N/N=C/c3cccnc3)c2)cc1,active: 1.58 µM,–
O=S(=O)(Nc1cc(Sc2cccc3cccnc23)c(O)c2ccccc12)c1ccccc1,active: 18.4 µM,–
Cc1cc(C)c(S(=O)(=O)Nc2ccccc2-c2ccccc2)c(C)c1,"inconclusive: 20 µM [inhibitor, single point]",–
CN(C)S(=O)(=O)c1cc(NC(=O)c2ccc(-n3ccnc3)c([N+](=O)[O-])c2)ccc1Cl,"inconclusive: 20 µM [inhibitor, single point]",–
Cc1nn(-c2ccccc2)c(C)c1/C=N/NC(=O)CSc1nnc(SCc2ccccc2Cl)s1,active: 2.06 µM,–
O=[N+]([O-])c1ccccc1/C=N/n1c(C2CCCCC2)n[nH]c1=S,–,inactive: 5.79%
Cc1occc1C(=O)NCCc1ccc(Cl)cc1,–,inactive: 16.9%
CC(C)(C)c1ccc(OCC(=O)N/N=C/C2CC=CCC2)cc1 (stereo unspecified),"inconclusive: 35.5 µM [inhibitor, single point]",–
Cc1cc(=O)oc2n[nH]c(-c3ccccc3)c12,–,inactive: 4.4e-05%
CC(SCc1ccccc1)C(=O)Nc1ccc2c(c1)OCO2 (stereo unspecified),"inconclusive: 2.31 µM [activator, full curve, poor fit]",–
CCOc1cccc(C(=O)N(Cc2ccc(N(C)C)cc2)CC2CCCO2)c1 (stereo unspecified),"inconclusive: 2.51 µM [inhibitor, full curve]",–
S=c1[nH]nc(COc2ccccc2)n1/N=C/c1ccccc1Cl,"inconclusive: 7.94 µM [inhibitor, partial curve]",–
Cn1c(=O)n(C)c2cc(N3CCOCC3)c(NS(=O)(=O)c3ccc(C(C)(C)C)cc3)cc21,–,inactive: -7.4% [at 46.1 µM]
CCc1ccc(CNCc2c(C(=O)O)c(C)n(Cc3c(F)cccc3Cl)c2C)cc1,"inconclusive: 35.5 µM [inhibitor, single point]",–
COc1ccc(-c2cc(C#N)nc(NN)n2)cc1,"inconclusive: 35.5 µM [inhibitor, single point]",–

Structure (SMILES),Potency,"activity change, negative = inhibition"
COc1cccc(C2C3=C(CCCC3=O)Nc3[nH]n(-c4ccccc4)c(=O)c32)c1 (stereo unspecified),–,inactive: -6.12%
S=C1NCCc2ccccc2C1c1ccccc1 (stereo unspecified),"inconclusive: 0.259 µM [inhibitor, partial curve]",–
COc1cc(C(=O)N(Cc2ccco2)Cc2cc3ccccc3[nH]c2=O)cc(OC)c1OC,"inconclusive: 18.3 µM [inhibitor, single point]",–
COc1ccc(C2=CC(=O)OC3(CCCC3)O2)cc1,"inconclusive: 0.206 µM [activator, full curve, poor fit]",–
CCOC(=O)N1CCC(N2Cc3cccc(C(=O)NCc4ccccc4OC)c3C2=O)CC1,–,inactive: -28.3%
COc1ccccc1OCCCCOc1ccccc1F,–,inactive: 12.5%
CC(C)C(OC(=O)c1ccco1)C(=O)NCc1ccc2c(c1)OCO2 (stereo unspecified),"inconclusive: 11.2 µM [activator, single point]",–
O=C(c1ccc(S(=O)(=O)Cc2ccccc2Cl)c([N+](=O)[O-])c1)N1CCN(c2ccccn2)CC1,–,inactive: -3.81%
O=C(N/N=C/c1ccc2c(c1)OCO2)C1COc2ccccc2O1 (stereo unspecified),"inconclusive: 18.3 µM [inhibitor, partial curve, poor fit]",–
O=c1onc(-c2ccc(Cl)cc2Cl)n1-c1cccnc1,–,inactive: -4.35%
COCCNC(=O)COC(=O)C1=Cc2ccccc2OC1,–,inactive: -6.22% [at 46.1 µM]
CC(C)(CC(=O)O)CC(=O)Nc1ccc(Cl)c(Cl)c1,"inconclusive: 35.5 µM [activator, single point]",–
CC(=O)Nc1cccc(NC(=O)Cc2nc(-c3ccccc3)sc2-c2ccc(C)cc2)c1,"inconclusive: 2.51 µM [activator, full curve, poor fit]",–
O=C(Nc1ccccc1-c1nc2ccccc2s1)c1cccnc1Cl,–,inactive: -10.9%
COc1cc(SC)ccc1C(=O)NCCOc1c(C)cc(C)cc1C,–,inactive: 23.4% [at 14.3 µM]
CCOC(=O)c1cc2c(=O)n3ccccc3nc2n(CCCOC)c1=NC(C)=O,–,inactive: 4.28%
COc1ccnc(CSC(N)=Nc2ccccc2C(F)(F)F)c1,–,inactive: 10.3%
COc1ccc(-c2nc(CCNC(=O)c3cccs3)cs2)cc1,"inconclusive: 7.94 µM [activator, partial curve, poor fit]",–
COC(=O)c1c(-c2ccccc2)csc1NC(=O)c1ccco1,"inconclusive: 3.66 µM [activator, partial curve, poor fit]",–
Cc1csc(NC(=O)/C=C/c2ccc3c(c2)OCO3)n1,"inconclusive: 6.51 µM [inhibitor, full curve]",–
O=C(c1ccco1)N1CCN(C(=O)c2ccccc2OC(=O)C23CC4CC(CC(C4)C2)C3)CC1,"inconclusive: 17.8 µM [inhibitor, partial curve, poor fit]",–
CCc1ccc(-c2csc(-c3c[nH]c4ccccc34)n2)cc1,–,inactive: 24.4%
CCOC(=O)N1CCN(C(=O)CSc2ccc3nnc(CCNC(=O)c4ccc(OC)cc4)n3n2)CC1,"inconclusive: 7.08 µM [activator, partial curve, poor fit]",–
